# Assay results published in PubChem BioAssay AID504842 (National Center for Advancing Translational Sciences (NCATS), 2011).
# About 100 (0.03%) of roughly 330,000 compounds were called active. The inconclusive results got no clear call from the source; some entries with a clear call stand among them for comparison. Calls follow the shape of the dose curve; as a rule, active = well fitted inhibition curve with a large enough effect; inconclusive = small, poorly fitted or top-dose-only effect; inactive = flat fitted curve, though single readings scatter. Where the call is inconclusive, the potency comes from a doubtful curve fit.
# Tested on: Chaperonin Mm-Cpn (Methanococcus maripaludis)
# Assay: Inhibitors of TCP-1 ring complex (TRiC) of Methanococcus maripaludis (MmCpn): qHTS; also: nearly all actives have a fitted effect of over 80% in size;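 as to potency: enzyme at 25 nM with ATP substrate at 10 µM during the reaction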
# Conditions: purified Mm-Cpn ATPase, ADP Transcreener TR-FRET; series mostly up to 76.9 µM; activity, negative = inhibition: at the top concentration
# From the text: The eukaryotic chaperonin TRiC (for TCP-1 ring complex) is an essential and conserved chaperone required for the folding and activation of 10-15% of the proteins encoded by the human genome. […] The TRiC complex consist of two stacked 7-9 membered rings, each containing a central cavity. Substrates are folded within the cavity in an ATP-dependent manner. TRiC is a complex of eight different, essential proteins. As each of the genes encoding the eight subunits is essential for cell viability and no protocol has been developed to over-express this enzyme to high levels. That is why several groups studying the TRiC chaperonin have turned to the archaeal homolog of TRiC, Methanococcus maripaludis (Mm-CPN), and have used this enzyme as a model system for the study of the type II chaperonin family. Small molecule inhibitors of the Mm-CPN enzyme would be extremely useful to study the mechanism of chaperonin activity. Importantly, TRiC and Mm-CPN both require ATP hydrolysis for function. Furthermore, the ATP binding sites are highly conserved among these type II chaperonins. This provides us with an easy, well tested and straightforward assay to identify inhibitors of chaperonin activity. The Mm-CPN assay was developed in 1536-well plate format using the HTRF Transcreener ADP assay kit (Cisbio, Bedford, MA). This assay applied the time resolved fluorescence resonance energy transfer (TR-FRET) principle. ATP in the presence of Mm-CPN is converted to ADP + Pi. An antibody labeled with Eu3+-Cryptate specific and bound to ADP labeled with […] (d2) competes with the unlabeled ADP generated by Mm-CPN. The resulting TR-FRET signal is inversely proportional to the concentration of ADP in the sample. In this assay a reduction in TR-FRET signal is observed with ATP turnover. NIH Chemical Genomics Center [NCGC] NIH Molecular Libraries Probe Centers Network [MLPCN] MLPCN Grant: DA030554-01A1 Assay Submitter (PI): Judith Frydman, Stanford University
# Purified Mm-CPN was supplied by the laboratory of Dr. Judith Frydman. Protein samples were stored at -80C as single use aliquots. Protein was thawed in ambient temperature water bath and placed on ice once thawed. Buffer was prepared fresh day of screen. The buffer composition below was used to prepare the working solution of the Mm-CPN protein and ATP substrate. The buffer is comprised of 30 mM TRIS pH 7.4, 100mM KCl, 5mM MgCl2, and 1mM DTT. A final concentration of 25nM Mm-CPN and 10uM ATP per well were used in the screen. Instructions according to the manufacturer were followed for the ADP Transcreener kit. Used 1536 well Greiner white, medium binding (MB), solid bottom plates. Plates were read on the PerkinElmer EnVision plate reader using Excitation = 320 nm and Emission = […], 665 nm. Protocol- 1.Dispense 1.5ul per well of working [Mm-CPN] = 50nM (or 75 ng / well) 2.Spin plate at 1000 rpm for 30 seconds 3.23nl of compound transferred per well 4.Incubate at 37degC for 10 minutes 5.Dispense 1.5ul per well of working [ATP] = 20uM 6.Incubate at 37degC for 30 minutes 7.Dispense 3ul per well of Anti-ADP Cryptate / ADP-d2 mix (prepared as instructed by Cisbio) 8.Incubate at ambient for 30 minutes 9.Read using EnVision
# % is scaled to controls: 0 for no effect and ±100 for the full control effect; potency is read from the fitted curve at half-maximal effect.
Compound,Potency,"activity, negative = inhibition"
CC(=O)c1ccc(Nc2c([N+](=O)[O-])ccc3nonc23)cc1,"inconclusive: 17.8 µM [inhibitor, single point]",
Cc1noc(C)c1C(=O)Nc1cccc(S(=O)(=O)N2CCOCC2)c1,"inconclusive: 22.4 µM [inhibitor, single point]",
Cc1nc2cc3ccccc3cc2c(=O)[nH]1,,inactive: 2.08% [at 15.4 µM]
O=C(O)c1cc2c(cc1NC(=O)c1ccccc1OC(F)F)OCCCO2,,inactive: -0.923%
CCOC(=O)c1sc(NC(=O)CCN2C(=O)c3ccccc3C2=O)c(C(=O)OCC)c1C,"inconclusive: 12.6 µM [inhibitor, single point]",
Cc1cc2ccccc2n1CCNC(=O)c1cccs1,active: 28.2 µM,
O=C(Nc1ccc(C(=O)N2CCCC2)cc1)c1ccc(F)cc1Cl,"inconclusive: 22.4 µM [inhibitor, single point]",
Cc1cccc(C(=O)NCC(=O)OCC(=O)c2ccc(Br)s2)c1,"inconclusive: 100 µM [inhibitor, single point]",
CC(C)(C)S(=O)(=O)/C(C#N)=N/Nc1ccc(Cl)cc1,"inconclusive: 100 µM [inhibitor, single point]",
CCCC(=O)Nc1ccc(Cl)c(NC(=S)NC(=O)c2ccco2)c1,,inactive: 1.16%
CN1CCN(C(=O)c2ccc(COc3cc(Cl)ccc3Cl)o2)CC1,"inconclusive: 15.8 µM [inhibitor, single point]",
O=C(NCC1CCCO1)C1c2ccccc2C(=O)N1Cc1ccc2c(c1)OCO2 (stereo unspecified),"inconclusive: 89.1 µM [inhibitor, single point]",
O=C(O)CN(CCO)CCN(CC(=O)O)CC(=O)O,,inactive: 0.348%
O=C(Cn1cnc2ccccc2c1=O)c1ccc(OC(F)F)cc1,"inconclusive: 50.1 µM [inhibitor, single point]",
NS(=O)(=O)c1c(Sc2ccccc2C(=O)O)ccc2ccccc12,"inconclusive: 79.4 µM [inhibitor, partial curve, poor fit]",
O=C(COc1ccc2ccc(=O)oc2c1)OCc1ccccc1,"inconclusive: 89.1 µM [inhibitor, single point]",
Cc1ccc(C(=O)n2nc(C#N)c(C#N)c2N)cc1,"inconclusive: 100 µM [inhibitor, single point]",
C/C=C(\C)C(=O)O[C@H](c1cc2ccc(=O)oc2cc1OC)[C@@H](O)C(C)(C)O,"inconclusive: 70.8 µM [inhibitor, single point]",
Cc1ccc(CNC(=O)COC(=O)c2ccc(S(=O)(=O)N3CCCCCC3)cc2)cc1,"inconclusive: 89.1 µM [inhibitor, single point]",
O=C(Nc1c(-c2ccccc2)nc2ccccn12)c1ccccc1F,"inconclusive: 5.62 µM [inhibitor, single point]",
COc1cc(O)c(C(CCN2CCOCC2)c2ccc3c(c2)OCO3)c(OC)c1 (stereo unspecified),"inconclusive: 56.2 µM [inhibitor, single point]",
COc1cc(OC)cc(-c2nc3ccccc3c(=O)n2OC(=O)c2ccc(C)c(C)c2)c1,,inactive: -17.3%
COc1ccc(NC(=O)C2(c3cccs3)CCOCC2)cc1,"inconclusive: 5.62 µM [inhibitor, single point]",
C=CCn1c(SCC(=O)Nc2cc(C)on2)nnc1C1COc2ccccc2O1 (stereo unspecified),"inconclusive: 25.1 µM [inhibitor, single point]",

Compound,Potency,"activity, negative = inhibition"
CN(C)c1ccc(C=Nc2ccccc2)cc1,"inconclusive: 100 µM [inhibitor, single point]",
CC(=O)c1ccc(N=c2scc(C)n2C(C)C)cc1,,inactive: -1.91%
COC(=O)c1ccc2c(C)c(C3(O)CCCCC3)[nH]c2c1,,inactive: -1.04%
CCOC(=O)N1CCN(C(=O)C(C)n2nc(C)n3c(cc4sccc43)c2=O)CC1 (stereo unspecified),"inconclusive: 79.4 µM [inhibitor, single point]",
C/C(=N\NC(=O)c1ccc(CN2CCOCC2)cc1)c1ccc([N+](=O)[O-])cc1,"inconclusive: 63.1 µM [inhibitor, single point]",
COc1ccc(/C(N)=N/OC(=O)CN(C)S(=O)(=O)c2ccccc2)cc1,"inconclusive: 56.2 µM [inhibitor, single point]",
c1cnc(SCCOc2cccc3ccccc23)nc1,"inconclusive: 22.4 µM [inhibitor, single point]",
Cc1ccc(-n2ncc3c2CC(C)(C)CC3NC(=O)CCCN2CCCCC2=O)cc1 (stereo unspecified),"inconclusive: 17.8 µM [inhibitor, single point]",
COc1ccc(-c2nc(CC(=O)Nc3cccc(S(=O)(=O)NC4=NCCC4)c3)cs2)cc1,"inconclusive: 70.8 µM [inhibitor, single point]",
CSc1ccccc1OCc1cc(C(=O)NCc2cccc(C)n2)no1,"inconclusive: 89.1 µM [inhibitor, single point]",
COc1cccc(/C=N/Nc2ccc([N+](=O)[O-])cc2)c1O,,inactive: 1.88%
CN(CC(=O)NC(=O)NC1CCCCC1)c1ccccc1,"inconclusive: 22.4 µM [inhibitor, single point]",
CC(C)(C)c1nnc2sc(SCC(=O)c3ccc(Cl)cc3)nn2c1=O,"inconclusive: 112 µM [inhibitor, partial curve, poor fit]",
O=C(O)COc1ccc2nsnc2c1Cl,active: 6.31 µM,
Cc1c(C(=O)OC(C)C)sc2nc[nH]c(=O)c12,,inactive: -9.81%
Cc1cccc(NC(=S)/N=C(\N)Nc2nc(C)c3cc(C)ccc3n2)c1,,inactive: 1.04%
CN(Cc1ccc(C(C)(C)C)cc1)C(=O)C1CSC2(C)CCC(=O)N12 (stereo unspecified),"inconclusive: 100 µM [inhibitor, single point]",
COc1cccc(N2CCN(CC(=O)Nc3ccccc3C(=O)NCc3ccccc3)CC2)c1,"inconclusive: 100 µM [inhibitor, single point]",
Cc1ccc2cc(C3C(C#N)=C(N)Oc4c3ccc3cccnc43)c(=O)[nH]c2c1 (stereo unspecified),,inactive: -8.61%
C=CCNc1nc(C(=O)OCC(=O)c2ccc(OC)cc2OC)cs1,"inconclusive: 2000 µM [inhibitor, partial curve, poor fit]",
CC(C)(CO)NCc1c(OCc2ccc(Cl)cc2)ccc2ccccc12,,inactive: 0.495%
CCOC(=O)C(Cc1ccccc1)NC(=O)CCc1c(C)nc2ncnn2c1C (stereo unspecified),,inactive: 1.88%
C=CCNC(=S)N/N=C/c1cn(-c2ccccc2)nc1-c1ccc(OC)cc1,,inactive: 0.0723%
CN(C)c1nc(Cl)nc(N(C#N)CCOc2ccccc2)n1,,inactive: -0.24%

Compound,Potency,"activity, negative = inhibition"
COC(=O)c1c(-c2ccc(Br)cc2)csc1NC(=O)Cc1ccc(OC)c(OC)c1,"inconclusive: 112 µM [inhibitor, partial curve]",
N#Cc1ccc(COC(=O)c2cnc3ccccc3n2)cc1,"inconclusive: 14.1 µM [inhibitor, single point]",
Cc1noc(NS(=O)(=O)c2ccc(NC(=O)C(Cl)(Cl)Cl)cc2)c1C,,inactive: 0.252%
COc1ccccc1C1=NN(C(=S)Nc2ccccc2)C(c2ccco2)C1 (stereo unspecified),"inconclusive: 126 µM [inhibitor, partial curve, poor fit]",
Cc1cc(C)c(S(=O)(=O)Nc2ccc(N3CCOCC3)cc2)c(C)c1,"inconclusive: 50.1 µM [inhibitor, single point]",
COc1ccccc1N(C(=O)c1snc(C(N)=O)c1N)C(C(=O)NCCC(C)C)c1ccco1 (stereo unspecified),"inconclusive: 79.4 µM [inhibitor, single point]",
COc1ccc(C(=O)Nc2ccc(Cl)cc2C(=O)NCc2ccco2)cc1,"inconclusive: 316 µM [inhibitor, partial curve, poor fit]",
CC(=O)N1c2ccccc2[C@H](C)[C@H]1C,"inconclusive: 447 µM [inhibitor, partial curve, poor fit]",
O=C(COc1ccccc1[N+](=O)[O-])Nc1cc(Cl)ccc1C(=O)O,active: 44.7 µM,
COc1ccc([C@@H]2CC=C(C(=O)O)[C@H](c3ccc(C)cc3)N2S(=O)(=O)c2ccc(C)cc2)cc1OC,"inconclusive: 89.1 µM [inhibitor, single point]",
Cc1cc(C(=O)N/N=C/c2cc(N=Nc3ccccc3)ccc2O)n[nH]1,,inactive: -1.33%
Cc1ccc(-c2nc(-c3ccncc3)no2)cc1C,"inconclusive: 25.1 µM [inhibitor, single point]",
COc1ccc(C(=O)NCC2CCCCC2)cc1S(=O)(=O)N1CCOCC1,"inconclusive: 100 µM [inhibitor, single point]",
Cc1ccc(CN2CCNC(=O)C2CC(=O)N(C)CCc2ccccc2)cc1 (stereo unspecified),,inactive: 0.787%
O=Cc1ccc(OC(=O)C2CC(=O)N(c3ccc(F)cc3)C2)cc1 (stereo unspecified),,inactive: -0.321%
CCS(=O)(=O)Nc1ccc(-c2nc3cccnc3s2)cc1,,inactive: -3.06%
O=C(CCN1C(=O)C2C3C=CC(C3)C2C1=O)NC1CCCc2ccccc21 (stereo unspecified),,inactive: 1.4%
COc1ccccc1-c1sc2ccccc2c1-c1ccc(O)cc1,"inconclusive: 112 µM [inhibitor, single point]",
COCc1ccc(C(=O)N2CCCC(Nc3ccc(F)c(F)c3)C2)s1 (stereo unspecified),"inconclusive: 79.4 µM [inhibitor, single point]",
CCCC(=O)NNC(=O)c1c(O)c2ccccc2[nH]c1=O,"inconclusive: 20 µM [inhibitor, single point]",
Cc1cc(/C=N/Nc2ccc([N+](=O)[O-])cn2)c(C)n1-c1ccccc1,"inconclusive: 28.2 µM [inhibitor, single point]",
COc1cc(CNCCO)cc(Br)c1OCc1ccccc1Cl,,inactive: 1.14%
CCCCCC1CCC(c2ccc(/C(N)=N/O)cc2)CC1 (stereo unspecified),"inconclusive: 200 µM [inhibitor, partial curve, poor fit]",

# Whole records, looked up by structure.
# `COCc1ccc(C(=O)N2CCCC(Nc3ccc(F)c(F)c3)C2)s1` (stereo unspecified) as listed: Potency: inconclusive: 79.4 µM [inhibitor, single point]
# `Cc1cc(C(=O)N/N=C/c2cc(N=Nc3ccccc3)ccc2O)n[nH]1` as listed: activity, negative = inhibition: inactive: -1.33%
# `CCS(=O)(=O)Nc1ccc(-c2nc3cccnc3s2)cc1` as listed: activity, negative = inhibition: inactive: -3.06%
